This passage reports log2 fold change results from the supplement of paper PMC10849652.

Sequences of proteins named here, by UniProt entry; tags and fusion partners are left off. A change or cut given only in a name is not applied to a line headed by its entry.
UniProt Q92843: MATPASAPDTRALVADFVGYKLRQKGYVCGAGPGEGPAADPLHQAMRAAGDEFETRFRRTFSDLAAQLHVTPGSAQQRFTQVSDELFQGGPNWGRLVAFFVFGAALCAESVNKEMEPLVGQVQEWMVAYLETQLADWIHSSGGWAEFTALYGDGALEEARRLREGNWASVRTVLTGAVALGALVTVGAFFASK
UniProt O14867: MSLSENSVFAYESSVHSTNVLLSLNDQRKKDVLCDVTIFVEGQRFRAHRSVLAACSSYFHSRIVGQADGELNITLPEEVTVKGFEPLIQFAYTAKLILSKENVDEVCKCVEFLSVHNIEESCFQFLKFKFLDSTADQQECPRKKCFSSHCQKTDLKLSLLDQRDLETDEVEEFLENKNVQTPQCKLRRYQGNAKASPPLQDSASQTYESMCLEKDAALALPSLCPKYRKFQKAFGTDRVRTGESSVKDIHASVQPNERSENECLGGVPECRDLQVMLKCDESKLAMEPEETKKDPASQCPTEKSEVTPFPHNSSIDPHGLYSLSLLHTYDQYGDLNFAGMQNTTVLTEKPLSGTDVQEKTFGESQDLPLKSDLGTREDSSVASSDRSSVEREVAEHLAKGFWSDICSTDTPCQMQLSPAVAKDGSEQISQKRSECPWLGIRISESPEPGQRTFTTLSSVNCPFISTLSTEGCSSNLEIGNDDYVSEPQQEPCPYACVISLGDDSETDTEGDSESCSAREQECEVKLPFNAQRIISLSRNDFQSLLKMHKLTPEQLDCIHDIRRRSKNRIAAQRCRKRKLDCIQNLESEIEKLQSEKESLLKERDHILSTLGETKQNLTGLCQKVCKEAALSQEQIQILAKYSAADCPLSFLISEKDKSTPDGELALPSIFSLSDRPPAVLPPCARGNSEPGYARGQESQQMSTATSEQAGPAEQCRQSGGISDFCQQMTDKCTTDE
UniProt Q9UHR4: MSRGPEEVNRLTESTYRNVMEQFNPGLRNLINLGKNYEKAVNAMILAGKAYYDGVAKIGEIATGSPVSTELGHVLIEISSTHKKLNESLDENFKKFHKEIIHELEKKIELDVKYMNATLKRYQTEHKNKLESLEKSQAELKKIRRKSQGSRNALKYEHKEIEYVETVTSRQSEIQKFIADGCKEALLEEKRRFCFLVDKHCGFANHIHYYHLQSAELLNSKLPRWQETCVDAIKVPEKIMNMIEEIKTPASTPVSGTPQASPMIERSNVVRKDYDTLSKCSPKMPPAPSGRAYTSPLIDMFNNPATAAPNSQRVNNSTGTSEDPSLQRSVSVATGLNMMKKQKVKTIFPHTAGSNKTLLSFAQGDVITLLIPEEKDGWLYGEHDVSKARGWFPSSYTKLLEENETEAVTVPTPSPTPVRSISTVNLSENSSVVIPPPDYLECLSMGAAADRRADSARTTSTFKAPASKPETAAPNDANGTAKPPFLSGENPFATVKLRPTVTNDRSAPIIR
UniProt Q96GX2: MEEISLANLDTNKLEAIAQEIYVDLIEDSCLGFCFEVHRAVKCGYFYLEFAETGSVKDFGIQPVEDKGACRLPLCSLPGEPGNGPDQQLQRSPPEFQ
UniProt O94766: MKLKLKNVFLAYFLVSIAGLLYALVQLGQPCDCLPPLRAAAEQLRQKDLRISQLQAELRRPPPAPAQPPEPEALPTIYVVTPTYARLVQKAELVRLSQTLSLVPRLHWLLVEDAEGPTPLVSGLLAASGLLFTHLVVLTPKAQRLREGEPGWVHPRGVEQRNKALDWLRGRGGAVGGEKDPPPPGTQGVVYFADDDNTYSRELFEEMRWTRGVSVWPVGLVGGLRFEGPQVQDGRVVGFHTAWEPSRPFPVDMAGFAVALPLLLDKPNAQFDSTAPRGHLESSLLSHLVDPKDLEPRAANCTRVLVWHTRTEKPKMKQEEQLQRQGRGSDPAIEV
UniProt Q8NFC6: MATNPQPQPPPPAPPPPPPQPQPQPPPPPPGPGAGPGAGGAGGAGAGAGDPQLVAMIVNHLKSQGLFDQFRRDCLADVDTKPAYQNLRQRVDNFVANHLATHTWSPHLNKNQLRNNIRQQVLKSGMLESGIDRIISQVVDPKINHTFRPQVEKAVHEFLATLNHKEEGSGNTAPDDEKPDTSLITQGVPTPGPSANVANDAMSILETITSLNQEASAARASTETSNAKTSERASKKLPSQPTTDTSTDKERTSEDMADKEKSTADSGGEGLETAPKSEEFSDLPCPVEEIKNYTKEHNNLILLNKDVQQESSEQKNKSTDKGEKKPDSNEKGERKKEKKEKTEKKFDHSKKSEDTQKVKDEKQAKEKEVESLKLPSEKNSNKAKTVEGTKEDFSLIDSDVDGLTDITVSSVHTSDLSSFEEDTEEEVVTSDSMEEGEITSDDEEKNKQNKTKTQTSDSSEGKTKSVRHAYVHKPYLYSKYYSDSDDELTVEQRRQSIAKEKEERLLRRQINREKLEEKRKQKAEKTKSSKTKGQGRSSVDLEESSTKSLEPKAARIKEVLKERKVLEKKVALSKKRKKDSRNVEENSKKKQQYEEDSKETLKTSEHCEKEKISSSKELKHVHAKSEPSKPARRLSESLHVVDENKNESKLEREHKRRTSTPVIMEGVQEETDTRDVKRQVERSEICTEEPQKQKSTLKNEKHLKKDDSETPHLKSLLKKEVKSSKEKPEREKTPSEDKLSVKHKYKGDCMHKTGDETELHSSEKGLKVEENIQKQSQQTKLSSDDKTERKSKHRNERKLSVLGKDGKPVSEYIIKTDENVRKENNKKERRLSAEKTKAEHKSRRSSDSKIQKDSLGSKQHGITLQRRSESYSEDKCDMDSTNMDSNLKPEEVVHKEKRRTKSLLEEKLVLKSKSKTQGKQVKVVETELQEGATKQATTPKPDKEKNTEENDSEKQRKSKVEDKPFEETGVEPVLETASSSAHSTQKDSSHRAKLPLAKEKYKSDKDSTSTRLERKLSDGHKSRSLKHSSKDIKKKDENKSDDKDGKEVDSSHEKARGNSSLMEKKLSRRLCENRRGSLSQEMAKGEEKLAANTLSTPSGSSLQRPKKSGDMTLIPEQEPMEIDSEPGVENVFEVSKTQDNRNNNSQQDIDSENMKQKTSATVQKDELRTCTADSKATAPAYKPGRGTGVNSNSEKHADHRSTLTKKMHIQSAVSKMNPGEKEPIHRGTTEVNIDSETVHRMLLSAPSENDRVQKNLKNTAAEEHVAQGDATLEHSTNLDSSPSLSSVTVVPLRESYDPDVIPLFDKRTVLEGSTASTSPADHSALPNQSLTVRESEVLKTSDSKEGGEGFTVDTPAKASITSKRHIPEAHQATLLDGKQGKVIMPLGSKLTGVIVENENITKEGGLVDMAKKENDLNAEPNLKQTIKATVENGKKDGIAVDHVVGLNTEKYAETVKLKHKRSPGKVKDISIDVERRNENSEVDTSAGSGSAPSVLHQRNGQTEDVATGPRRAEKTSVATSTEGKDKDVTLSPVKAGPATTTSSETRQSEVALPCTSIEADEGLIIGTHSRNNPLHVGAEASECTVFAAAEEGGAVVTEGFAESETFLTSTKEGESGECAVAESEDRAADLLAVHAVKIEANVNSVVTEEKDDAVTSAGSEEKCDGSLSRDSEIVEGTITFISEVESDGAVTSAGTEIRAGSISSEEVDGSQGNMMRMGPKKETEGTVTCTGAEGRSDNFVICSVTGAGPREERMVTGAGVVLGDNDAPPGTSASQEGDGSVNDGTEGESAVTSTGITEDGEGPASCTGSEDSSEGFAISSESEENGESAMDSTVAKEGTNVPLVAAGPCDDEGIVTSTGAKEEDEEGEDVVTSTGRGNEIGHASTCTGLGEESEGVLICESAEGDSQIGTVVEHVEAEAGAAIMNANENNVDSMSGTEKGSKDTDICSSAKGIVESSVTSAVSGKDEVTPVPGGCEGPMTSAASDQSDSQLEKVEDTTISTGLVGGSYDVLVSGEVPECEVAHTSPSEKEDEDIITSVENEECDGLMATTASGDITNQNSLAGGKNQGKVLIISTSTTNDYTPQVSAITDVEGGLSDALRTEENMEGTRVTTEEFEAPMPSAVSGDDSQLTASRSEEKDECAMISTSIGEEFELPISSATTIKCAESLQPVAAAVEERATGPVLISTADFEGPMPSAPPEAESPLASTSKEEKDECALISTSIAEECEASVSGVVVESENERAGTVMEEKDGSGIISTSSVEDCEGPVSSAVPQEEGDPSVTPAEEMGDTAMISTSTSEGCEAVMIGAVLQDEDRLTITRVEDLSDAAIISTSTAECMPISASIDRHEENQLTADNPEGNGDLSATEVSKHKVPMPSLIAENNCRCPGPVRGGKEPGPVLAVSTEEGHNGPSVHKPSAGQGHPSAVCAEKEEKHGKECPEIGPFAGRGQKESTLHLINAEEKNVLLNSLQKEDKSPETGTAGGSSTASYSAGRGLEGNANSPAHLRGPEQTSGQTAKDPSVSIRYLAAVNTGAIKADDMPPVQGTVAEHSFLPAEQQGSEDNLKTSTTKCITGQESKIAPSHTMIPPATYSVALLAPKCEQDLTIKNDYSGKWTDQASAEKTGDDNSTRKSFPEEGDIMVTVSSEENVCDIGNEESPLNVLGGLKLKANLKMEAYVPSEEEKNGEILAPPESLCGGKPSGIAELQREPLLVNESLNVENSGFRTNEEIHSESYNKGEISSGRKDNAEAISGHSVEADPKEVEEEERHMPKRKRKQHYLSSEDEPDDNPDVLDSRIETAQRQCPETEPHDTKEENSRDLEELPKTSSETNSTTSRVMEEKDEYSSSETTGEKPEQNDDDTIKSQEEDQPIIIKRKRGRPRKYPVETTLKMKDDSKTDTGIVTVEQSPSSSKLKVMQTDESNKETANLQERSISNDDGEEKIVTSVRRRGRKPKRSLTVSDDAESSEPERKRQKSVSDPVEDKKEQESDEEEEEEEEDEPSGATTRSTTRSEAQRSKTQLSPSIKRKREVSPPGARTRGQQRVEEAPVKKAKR
UniProt Q8NBF6: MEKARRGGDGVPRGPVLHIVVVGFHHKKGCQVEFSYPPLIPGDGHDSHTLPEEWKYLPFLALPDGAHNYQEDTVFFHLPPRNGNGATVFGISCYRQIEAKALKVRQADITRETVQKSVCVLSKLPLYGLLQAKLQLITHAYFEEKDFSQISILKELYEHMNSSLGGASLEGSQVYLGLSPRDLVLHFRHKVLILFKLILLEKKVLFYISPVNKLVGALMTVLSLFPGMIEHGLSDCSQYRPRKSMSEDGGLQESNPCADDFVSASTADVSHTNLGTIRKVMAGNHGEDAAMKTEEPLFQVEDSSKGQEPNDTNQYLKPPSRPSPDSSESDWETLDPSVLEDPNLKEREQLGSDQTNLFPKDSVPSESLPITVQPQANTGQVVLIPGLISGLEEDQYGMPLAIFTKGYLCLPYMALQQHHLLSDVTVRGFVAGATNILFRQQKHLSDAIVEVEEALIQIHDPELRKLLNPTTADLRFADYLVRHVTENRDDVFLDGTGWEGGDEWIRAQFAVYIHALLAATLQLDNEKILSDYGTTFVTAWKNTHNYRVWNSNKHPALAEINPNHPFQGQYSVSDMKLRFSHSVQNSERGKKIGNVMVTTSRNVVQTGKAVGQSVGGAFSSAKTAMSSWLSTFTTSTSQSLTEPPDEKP
UniProt Q6QNY1: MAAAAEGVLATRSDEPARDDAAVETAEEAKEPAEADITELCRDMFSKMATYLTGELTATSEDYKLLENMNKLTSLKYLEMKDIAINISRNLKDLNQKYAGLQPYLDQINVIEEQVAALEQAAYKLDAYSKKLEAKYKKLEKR
UniProt Q6PJG6: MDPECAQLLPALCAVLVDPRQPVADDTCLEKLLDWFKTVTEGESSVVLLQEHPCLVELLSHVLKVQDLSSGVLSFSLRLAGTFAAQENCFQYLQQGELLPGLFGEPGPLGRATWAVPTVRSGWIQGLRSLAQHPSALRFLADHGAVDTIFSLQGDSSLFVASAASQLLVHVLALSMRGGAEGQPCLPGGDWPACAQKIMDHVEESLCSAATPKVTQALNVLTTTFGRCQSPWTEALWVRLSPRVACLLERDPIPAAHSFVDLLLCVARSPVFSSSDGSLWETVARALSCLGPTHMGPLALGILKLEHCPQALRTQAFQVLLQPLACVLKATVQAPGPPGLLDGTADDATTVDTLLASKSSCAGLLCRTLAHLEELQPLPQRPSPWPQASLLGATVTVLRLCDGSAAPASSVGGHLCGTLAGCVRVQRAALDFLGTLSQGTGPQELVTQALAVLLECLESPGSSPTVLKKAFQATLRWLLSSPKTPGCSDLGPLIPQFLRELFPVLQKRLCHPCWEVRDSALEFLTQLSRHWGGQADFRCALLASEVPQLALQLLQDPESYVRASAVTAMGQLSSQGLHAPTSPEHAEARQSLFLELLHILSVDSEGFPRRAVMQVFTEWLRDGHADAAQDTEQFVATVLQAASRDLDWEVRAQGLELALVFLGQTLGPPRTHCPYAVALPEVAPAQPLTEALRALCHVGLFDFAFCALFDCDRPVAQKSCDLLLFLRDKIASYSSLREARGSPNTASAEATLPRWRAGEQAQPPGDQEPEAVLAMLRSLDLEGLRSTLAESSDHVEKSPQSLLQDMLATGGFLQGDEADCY

The list shows a part of the results.

Compound in this experiment: C1CCN(C1)C(=O)NC2=CC=CC(=C2)NC3=NC=C(C(=N3)NCCC4=CN=CN4)Br
Nature of the experiment: log2 fold change, soluble protein after heating vs DMSO (PISA); higher = thermal stabilisation; K562 cells, 10 uM, 30 min; active = over 0.2 and 3.5 SD of the protein, either way, in both replicates (recomputed). In short, it runs like this: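 Soluble protein was quantified by TMTpro 16plex LC-MS/MS after channel sums were equalised. It was obtained as the supernatant after 21,000xg for 90 min from pooled aliquots of K562 cells (2×10^6 cells/mL, 10 μM compound, 30 min) heated for 3 min across 48°C-58°C and extracted in PBS with 0.5% NP-40 at 4°C. Thermal stability values are relative to control samples and come from duplicates. They are given as log2 fold changes.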
ATXN2 (UniProt Q99700): the log2 fold change was inactive: 0.001.

Turning to BCAR1 isoform 6 (UniProt P56945), the log2 fold change is inactive: 0.011.

As to BPGM (UniProt P07738), the log2 fold change was inactive: -0.036.

In the case of BRAP (UniProt Q7Z569), the log2 fold change was inactive: -0.07.

Take BAX isoform 2 (UniProt Q07812): the log2 fold change is inactive: -0.079.

As for BPHL (UniProt Q86WA6), the log2 fold change was active: -0.38.

Regarding BCL2L2 isoform 2 (UniProt Q92843), the log2 fold change was inactive: 0.037.

On to BACH1 (UniProt O14867), for which the log2 fold change was inactive: -0.019.

BAIAP2L1 (UniProt Q9UHR4): the log2 fold change is inactive: -0.02.

Regarding BCCIP (UniProt Q9P287), the log2 fold change was inactive: -0.036.

For the target BLOC1S4 (UniProt Q9NUP1), the log2 fold change was inactive: -0.098.

Take BICD2 isoform 2 (UniProt Q8TD16): the log2 fold change was inactive: -0.013.

BAG6 isoform 3 (UniProt P46379): the log2 fold change is inactive: -0.014.

Consider BRIX1 (UniProt Q8TDN6), for which the log2 fold change is inactive: 0.017.

Take AUP1 (UniProt Q9Y679): the log2 fold change is inactive: -0.031.

As to B4GALT1 (UniProt P15291), the log2 fold change was inactive: -0.078.

On to BIRC2 (UniProt Q13490), for which the log2 fold change was inactive: 0.052.

Take ATXN7L3B (UniProt Q96GX2): the log2 fold change is inactive: -0.001.

For the target ATXN2L (UniProt Q8WWM7), the log2 fold change is inactive: -0.002.

BORCS5 (UniProt Q969J3): the log2 fold change was inactive: 0.015.

Take B3GAT3 (UniProt O94766): the log2 fold change was inactive: -0.097.

BNIP2 (UniProt J3KN59): the log2 fold change is inactive: -0.004.

In the case of B3GNTL1 (UniProt Q67FW5), the log2 fold change was inactive: 0.036.

For the target BCAS2 (UniProt O75934), the log2 fold change was inactive: -0.195.

Regarding BLOC1S6 (UniProt Q9UL45), the log2 fold change was inactive: 0.027.

Take BLVRA (UniProt P53004): the log2 fold change is inactive: 0.039.

On to BOP1 (UniProt Q14137), for which the log2 fold change was inactive: 0.043.

In the case of BCS1L (UniProt Q9Y276), the log2 fold change was inactive: 0.028.

For BRCC3 (UniProt P46736), the log2 fold change was inactive: -0.009.

Regarding BCCIP isoform 2 (UniProt Q9P287), the log2 fold change was inactive: -0.002.

In the case of BOD1L1 (UniProt Q8NFC6), the log2 fold change is inactive: -0.064.

Turning to B3GNT2 (UniProt Q9NY97), the log2 fold change was inactive: -0.133.

With B4GALT3 (UniProt O60512), the log2 fold change was inactive: 0.004.

On to AVL9 (UniProt Q8NBF6), for which the log2 fold change was inactive: 0.013.

As for BAP1 (UniProt Q92560), the log2 fold change is inactive: -0.078.

Turning to BLOC1S2 (UniProt Q6QNY1), the log2 fold change was inactive: -0.189.

As for BCAP29 isoform 2 (UniProt Q9UHQ4), the log2 fold change is inactive: 0.062.

As to BRAT1 (UniProt Q6PJG6), the log2 fold change is inactive: -0.026.

In the case of BORCS6 (UniProt Q96GS4), the log2 fold change was inactive: -0.024.

Turning to AURKA (UniProt O14965), the log2 fold change was active: 0.707.
